Each structure is given as a SMILES string.

Consider two compounds from patent US20150307539A1, “USE OF SULPHATED G[…] PROMOTERS OF NEURITIC GROWTH, M[…] INHIBITING THE PROLIFERATION OF ASTROGLIA AND MICROGLIA” (CONSEJO SUPERIOR DE INVESTIGACIONES CIENTIFICAS (CSIC), priority 2012, published 2015).

The data set deals with astrocytes and microglial cells. Kind of data set: Internalisation and subcellular localisation in glial cells. The class given is cell-based.

For `CCCCCCCC/C=C\CCCCCCCCO[C@H]1O[C@H](COS(=O)(=O)[O-])[C@@H](O)[C@H](O)[C@H]1NC(=O)CCCCCNc1ccc([N+](=O)[O-])c2nonc12.[K+]` [IG20-NBD, potash from oleyl 2-[6-(7-nitrobenzofurazan)-aminohexanamide]-6-O-(oxo-sulphonyl)-α-D-glucosaminide], the “cell penetration and localisation by fluorescence” value (astrocytes and microglial cells, no signal in the nucleus) is “penetrates the glial cells and accumulates in the cytosol”. For `CCCCCCCC/C=C\CCCCCCCCO[C@H]1O[C@H](COS(=O)(=O)[O-])[C@@H](O)[C@H](O)C1NC(C)=O.[K+]` (stereo partly drawn) [IG-20, potash from oleyl N-acetyl-6-O-(oxo-sulphonyl)-α-D-glucosaminide], the “distribution between cytoplasmic and membrane fractions” value (cells treated with 30 μM, cell fractionation, MS detection) is listed as “cytoplasmic fractions were enriched in the IG-20 compound, which was weakly detected in the membrane fractions”.
